Assay results reported in paper PMC4955970, “Stable, synthetic analogs of diadenosine tetraphosphate inhibit rat and human P2X3 receptors and inflammatory pain” (Molecular Pain, 2016).

Tested on: formalin-induced nociceptive behavior
Assay: Formalin test (spontaneous jerking of the injected hindpaw)
Type: in vivo, rat
Settings: formalin test dose-response
Experimental: All animal experiments were carried out in accordance with the “Guide for the Care and Use of Laboratory Animals” as adopted by the Bogomoletz Institute of Physiology Clinic of Animal Care and Use. The formalin test experiments were performed on 21-day-old male Wistar rats, weighing 40 ± 5 g according to the method described previously.[49],[50] Briefly, animal was acclimated to an acrylic observation chamber for at least 1 h before the injection of formalin (50 µl of 0.5% solution in 0.9% saline) into the dorsal surface of the right hindpaw. Immediately after the injection, each animal was returned to the observation chamber and its behavioral characteristics were recorded for 45 min. We noticed consistently observed type of response: spontaneous jerking of the injected paw. The number of jerks was measured for each 1-min block, using self-developed computer software.
Figure 8. Effects of subcutaneous Ap4A analogs on pain responses induced by intraplantar (right hindpaw) formalin injection. Rats were subcutaneously injected with formalin solution alone (0.5%, 50 µl, control) or coinjected with the formalin solution and solutions with AppCH2ppA (1 µM–100 µM, 100 µl) or AppNHppA (0.1 µM–100 µM, 100 µl). Age-matched control animals were injected with saline. (a) Time course of the effects of subcutaneous AppCH2ppA (left) and AppNHppA (right) on the number of the spontaneous jerkings of the injected paw. (b) Bar graphs of the effects of AppCH2ppA (b, c) and AppNHppA (d, e) on the integral number of spontaneous jerkings. Measurements were made during the acute phase (0–6 min) and tonic phase (7–45 min) of the formalin response. (f) Dose-response curves for AppCH2ppA (left) and AppNHppA (right) during tonic and acute phases. For each concentration 6–7 rats were used.

SMILES | kH, acute phase | kH, tonic phase
Nc1ncnc2c1ncn2[C@@H]1O[C@H](COP(=O)(O)OP(=O)(O)CP(=O)(O)OP(=O)(O)OC[C@H]2O[C@@H](n3cnc4c(N)ncnc43)C(O)C2O)C(O)C1O (stereo partly drawn) [AppCH2ppA, diadenosine 5′,5′′′-P^1,P^4-(β,γ-methylene)tetraphosphate] | 0.5 ± 0.14 | 1.15 ± 0.17
Nc1ncnc2c1ncn2[C@@H]1O[C@H](COP(=O)(O)OP(=O)(O)NP(=O)(O)OP(=O)(O)OC[C@H]2O[C@@H](n3cnc4c(N)ncnc43)[C@H](O)[C@@H]2O)[C@@H](O)[C@H]1O [AppNHppA, diadenosine 5′,5′′′-P^1,P^4-(β,γ-imido)tetraphosphate] |  | 0.82 ± 0.1
